Test results: the supplement of paper PMC10735217
Structures can show the parent of a compound that is named as a salt. This is one part of the list. Single values are uncertain here, since repeats match poorly.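 The human kidney-derived cells carry a stably integrated construct of eight TEAD-binding elements driving luciferase, read by luminescence in a drug-repurposing library screen. A compound counts as a hit when its signal is more than five robust Z scores above the plate mean.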

Test system: HEK293A TEAD-LUC reporter
Assay: TEAD-luciferase reporter activity (YAP activation), robust Z score vs plate; higher = stronger YAP/TEAD activation
Conditions: 24 h

SMILES	TEAD-luciferase reporter activity (compound concentration: 200 nM)	TEAD-luciferase reporter activity (compound concentration: 2 uM)	TEAD-luciferase reporter activity (compound concentration: 10 uM)
c1ccc2c(c1)CCc1cccc3c1C2CN1CCCCC31 (configuration not stated)	inactive: 0.318	inactive: -1.65	inactive: 0.177
c1ccc(N(CCN2CCCCC2)Cc2ccccn2)cc1	inactive: 4.72	inactive: -1.21	inactive: 0.366
Nc1c(Br)cc(Br)cc1CN[C@H]1CC[C@H](O)CC1 [Ambroxol HCl]	inactive: -0.965		inactive: 0.0971
Nc1c(Br)cc(Br)cc1CN[C@H]1CC[C@H](O)CC1 [Ambroxol hydrochloride]		inactive: 0.0421	
O=C(CCBr)N1CC[N+]2(CC1)CC[N+]1(CCN(C(=O)CCBr)CC1)CC2 [Spirobromin]	inactive: -1.98	inactive: -0.986	inactive: -0.628
CN1CCN(C2=Cc3cc(Cl)ccc3/C(=C\C#N)c3ccccc32)CC1	inactive: -1.06	inactive: 0.736	inactive: -1.27
O=C(/C=C/C=C/c1ccc2c(c1)OCO2)N1CCCCC1	inactive: -0.896		active: 6.18
COc1ccc(-c2nc(-c3cccn3CC(=O)O)sc2-c2ccc(OC)cc2)cc1	inactive: -2.28	inactive: 0.153	inactive: -0.0958
COC(=O)Nc1ccc(S(=O)(=O)/N=c2\cc(C(=O)O)[nH]c3cc(Cl)cc(Cl)c23)cc1	inactive: -0.722	inactive: -1.11	inactive: -0.336
COc1ccc(CN[C@@H](C(=O)N[C@H]2c3ccccc3C[C@H]2O)[C@H](O)[C@H](Cc2ccccc2)NC(=O)[C@@H](NC(=O)OCc2ccccc2)C(C)(C)C)cc1	inactive: -1.04	inactive: -0.487	inactive: 1.52
COc1cc(N2CCN(C3CCN(c4ccc(F)c5c(OC)cc(C(F)(F)F)nc45)CC3)CC2)c2ncccc2c1	inactive: -1.22	inactive: -0.425	inactive: -2.37
CNC(=S)NCO	inactive: 0.16	inactive: 1.21	inactive: 1.63
CN(C)S(=O)(=O)CCNC(=O)N(CCCl)N=O	inactive: -1.61	inactive: -0.529	inactive: -0.675
CCCNC1CCc2nc(N)sc2C1 (configuration not stated) [pramipexole]	inactive: -1.73	inactive: -0.243	inactive: -0.453
C[C@@H](NC(=O)[C@@H](CC(=O)N1CCC(N2CCCCC2)CC1)N1C(=O)[C@@H](N2C(=O)OC[C@@H]2c2ccccc2)[C@H]1/C=C/c1ccccc1)c1ccccc1	inactive: 3.56	inactive: -0.368	inactive: 1.84
COc1ccc(CN2CC(Oc3ccc(OC)cc3)C2)cc1	inactive: 0.0824		inactive: -1.34
CCOC(=O)Nc1ccc(SCC2COC(Cn3ccnc3)(c3ccc(OC)cc3)O2)cc1 (configuration not stated)	inactive: 4.47	inactive: 1.04	active: 6.86
CC(C)Nc1cccnc1N1CCN(C(=O)c2cc3cc(NS(C)(=O)=O)ccc3[nH]2)CC1 [Delavirdine mesylate]	inactive: -2.45		inactive: -0.931

Full records as entered above. Values in the order: TEAD-luciferase reporter activity (compound concentration: 200 nM) | TEAD-luciferase reporter activity (compound concentration: 2 uM) | TEAD-luciferase reporter activity (compound concentration: 10 uM)
CCOC(=O)Nc1ccc(SCC2COC(Cn3ccnc3)(c3ccc(OC)cc3)O2)cc1 (configuration not stated) is listed with inactive: 4.47 | inactive: 1.04 | active: 6.86
c1ccc2c(c1)CCc1cccc3c1C2CN1CCCCC31 (configuration not stated) is listed with inactive: 0.318 | inactive: -1.65 | inactive: 0.177

Later entries.

SMILES	TEAD-luciferase reporter activity (compound concentration: 200 nM)	TEAD-luciferase reporter activity (compound concentration: 2 uM)	TEAD-luciferase reporter activity (compound concentration: 10 uM)
CC(C)Nc1cccnc1N1CCN(C(=O)c2cc3cc(NS(C)(=O)=O)ccc3[nH]2)CC1 [delavirdine]		inactive: -0.288	
CNC(=N)NCCC[C@H](NC(=O)[C@H](CC(C)C)NC(=O)NNC(=O)[C@H](Cc1ccccc1)NC(=O)[C@@H](NC(=O)[C@H](CC(N)=O)NC(=O)[C@@H]1C[C@@H](O)CN1C(=O)[C@@H](Cc1ccc(O)cc1)NC(C)=O)[C@@H](C)O)C(=O)N[C@@H](Cc1c[nH]c2ccccc12)C(N)=O	inactive: -0.672	inactive: -0.166	inactive: 2.54
CCC(C)(C)c1ccc(CC(C)CN2C[C@@H](C)O[C@@H](C)C2)cc1 (some centres not stated) [amorolfine]		inactive: 0.0421	
CCC(C)(C)c1ccc(CC(C)CN2C[C@@H](C)O[C@@H](C)C2)cc1 (some centres not stated)	inactive: 1.38		inactive: -1.51
COc1c(O)cc2oc3cc(O)c(CC=C(C)C)c(O)c3c(=O)c2c1CC=C(C)C	inactive: 0.678	inactive: -0.0264	inactive: -0.658
CC1(C)CC(c2cccc[n+]2[O-])c2cc(C#N)ccc2O1 (configuration not stated)	inactive: 3.98	inactive: -0.916	inactive: -1.36
N[C@H](C(=O)O)[C@@H]1C=C(Cl)NO1 [acivicin]	inactive: -0.234		inactive: 0.377
CCOC(=O)C1=C(COCCNCC(N)=O)NC(C)=C(C(=O)OC)C1c1ccccc1Cl (configuration not stated)	inactive: -1.18	inactive: -0.32	inactive: -1.52
Cc1cnc(C(=O)NCCc2ccc(S(=O)(=O)NC(=O)NC3CCCCC3)cc2)cn1 [glipizide]		inactive: -0.923	
Cc1cnc(C(=O)NCCc2ccc(S(=O)(=O)NC(=O)NC3CCCCC3)cc2)cn1	inactive: 3.55		inactive: -0.821
COc1cc(Cc2cnc(N)nc2N)cc(OC)c1OC	inactive: 2.07		inactive: 0.0358
COc1cc(Cc2cnc(N)nc2N)cc(OC)c1OC [co-trimazine]		inactive: -0.878	
CN(C)CCCN1C(=O)c2cc([N+](=O)[O-])ccc2Oc2ccccc21 [Nitroxazepine]	inactive: -0.891	inactive: -1.96	inactive: 3.97
CC(CNC(=O)c1ccccc1)C(=O)OCC(=O)C12OC(c3ccc(N(C)C)cc3)O[C@@H]1C[C@H]1[C@@H]3CCC4=CC(=O)C=CC4(C)[C@@]3(F)[C@@H](O)CC12C (some centres not stated)	inactive: 1.13	inactive: 1.87	inactive: 0.44
COc1[nH]c2ccc(F)cc2c1C(=O)OCC1CCN(CCNS(C)(=O)=O)CC1	inactive: -0.939	inactive: 0.901	inactive: 0.379
COc1nccnc1NS(=O)(=O)c1ccc(N)cc1	inactive: -1.61	inactive: 1.26	inactive: -1.61
CC1(C)CC[C@]2(C(=O)O[C@@H]3O[C@H](CO)[C@@H](O)[C@H](O)[C@H]3O)[C@@H](O)C[C@]3(C)C(=CCC4[C@@]5(C)CC[C@H](O)C(C)(C)C5CC[C@]43C)[C@@H]2C1 (some centres not stated)	inactive: 1.28	inactive: 0.772	inactive: 2.56
